Experimental data from publication PMC12172431.

Biological target: Flag-tagged EXON0 (AcMNPV)
Assay: co-IP; Sf9 cells infected with vAcWT^Ac66Flag or vAcWT^EXON0Flag (MOI 5), 48 h p.i.; lysate on Flag-conjugated magnetic beads, or anti-Ac51 antibody with protein A/G agarose, 4°C overnight; IgG control; western blot

B1: Ac51 (protein, UniProt P41455 1-318)
chain: MSKRVRERSVVSDETAKRIRQNEHCHAKNESFLGFCNLEEIDYYQCLKMQYVPDQKFDNDFILTVYRMANVVTKQVRPYNSIDEKHHYNTVRNVLILIKNARLVLSNSVKKQYYDDVLKLKKNTDLESYDPLITVFLQIGESVNEEIQKLRKALVNIFTNKPDKSDINNPDVVSYQFIFGRVQKLYNRAIKQKTKTIIVKRPTTMNRIQIDWKTLSEDEQKMTRQEIAEKIVKPCFEQFGTILHIYVCPLKHNRIIVEYANSESVQKAMTVNDDTRFTVTEFSVVQYYNVAKTEMVNQRIDIISKDIEDLRNALKSYT
With B1 the binding was “no binding”.

No constants are given. Whether binding was seen depends on the method and setting. Binding seen in cells or lysates may run through a third protein.
